# This is one part of the list. Only a few entries rise above the background.
# B1: 4-127.3 (protein)
# chain 1: QVQLQESGPGLVKPSETLSLTCAVSGYSISSGYGWSWIRQPPGKGLEWIGYIGGSSGSTNYNPSLKSRVTVSKDTSKNQFSLKLSSVTAADTAVYYCARADYCTSTTCYGPNRFDVWGPGVLVTVSS
# chain 2: QAAPTQSPSVSGSAGQSVTISCTGSSSDIGYYNGVSWYQHHPGKAPKLMIYEVSKRPSGVSNRFSGSKSGNTASLTISGLQAADEADYFCSSYAGSGTYIFGAGTRLTVL
# B2: 4-99.4 (protein)
# chain 1: QVQLQESGPGLVKPSETLSLTCAVSGYSISSAYFWGWIRQPPGKGLEYIGYISGEGGKSYYNPSLMSRVTISKDTSKNQFSLKLNTVTAADTAVYYCARRAILVGFDLWGQGVLVTVSS
# chain 2: QAAPTQPPSVSGSPGQSVTISCTGSNSDIGYYNAVSWYQQHPGKAPKLMIYEVSKRPSGVSDRLTGSKSGNTASLTISGLQAEDEADYYCSSYAGSNTYIFGTGTRLTVL
# Assays:
# Test in all cases: fluorescence intensity of antibody binding to polysaccharide-coupled beads; higher = stronger binding
# [1] = biological target: pneumococcal polysaccharide Pn9N
# Protocol: (§1)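 Recombinant rhesus-murine chimeric IgG1 antibodies were tested against antigen-coupled MagPlex beads in a 96-plex Luminex direct immunoassay (dLIA). The beads carried pneumococcal capsular polysaccharides of 93 serotypes plus C-polysaccharides. Antibody was added at 0.1–12,500 ng/mL for 1 h, then PE anti-mouse IgG, and net MFI was read on a Bio-Plex 3D. Only the rhesus variable regions are printed; constant regions are murine IgG1/kappa/lambda, and the signal peptide is MGWSCIILFLVATATGVHS.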
# [2] = biological target: pneumococcal polysaccharide Pn9V
# Protocol: as §1
# [3] = biological target: pneumococcal polysaccharide C-Poly-1
# Protocol: as §1
# [4] = biological target: pneumococcal polysaccharide C-Poly-2
# Protocol: as §1
# [5] = biological target: pneumococcal polysaccharide Pn1
# Protocol: as §1
# [6] = biological target: pneumococcal polysaccharide Pn10A
# Protocol: as §1
# [7] = biological target: pneumococcal polysaccharide Pn10B
# Protocol: as §1
# [8] = biological target: pneumococcal polysaccharide Pn10C
# Protocol: as §1
# [9] = biological target: pneumococcal polysaccharide Pn10F
# Protocol: as §1
# [10] = biological target: pneumococcal polysaccharide Pn11A
# Protocol: as §1
# [11] = biological target: pneumococcal polysaccharide Pn11B
# Protocol: as §1
# [12] = biological target: pneumococcal polysaccharide Pn11C
# Protocol: as §1
# [13] = biological target: pneumococcal polysaccharide Pn11D
# Protocol: as §1
# [14] = biological target: pneumococcal polysaccharide Pn11F
# Protocol: as §1
# [15] = biological target: pneumococcal polysaccharide Pn12A
# Protocol: as §1
# [16] = biological target: pneumococcal polysaccharide Pn12B
# Protocol: as §1
# [17] = biological target: pneumococcal polysaccharide Pn12F
# Protocol: as §1
# [18] = biological target: pneumococcal polysaccharide Pn13
# Protocol: as §1
# [19] = biological target: pneumococcal polysaccharide Pn14
# Protocol: as §1
# [20] = biological target: pneumococcal polysaccharide Pn15A
# Protocol: as §1
# [21] = biological target: pneumococcal polysaccharide Pn15B
# Protocol: as §1
# [22] = antibody concentration 2337.65 ng/mL
# [23] = antibody concentration 12500 ng/mL
# [24] = antibody concentration 0.1 ng/mL
# [25] = antibody concentration 0.534724 ng/mL
# [26] = antibody concentration 2.8593 ng/mL
# [27] = antibody concentration 15.2894 ng/mL
# [28] = antibody concentration 81.7561 ng/mL
# [29] = antibody concentration 437.17 ng/mL
binder,measurement,setting,value
B1,fluorescence intensity,[1]; [22],19 MFI
same,fluorescence intensity,[1]; [23],31.8 MFI
same,fluorescence intensity,[2]; [24],15.5 MFI
same,fluorescence intensity,[2]; [25],16.2 MFI
same,fluorescence intensity,[2]; [26],16.5 MFI
same,fluorescence intensity,[2]; [27],16 MFI
same,fluorescence intensity,[2]; [28],16.5 MFI
same,fluorescence intensity,[2]; [29],16.5 MFI
same,fluorescence intensity,[2]; [22],17 MFI
same,fluorescence intensity,[2]; [23],24.5 MFI
B2,fluorescence intensity,[3]; [24],27 MFI
same,fluorescence intensity,[3]; [25],27 MFI
same,fluorescence intensity,[3]; [26],27.5 MFI
same,fluorescence intensity,[3]; [27],27 MFI
same,fluorescence intensity,[3]; [28],27.8 MFI
same,fluorescence intensity,[3]; [29],27 MFI
same,fluorescence intensity,[3]; [22],33 MFI
same,fluorescence intensity,[3]; [23],133 MFI
same,fluorescence intensity,[4]; [24],21 MFI
same,fluorescence intensity,[4]; [25],21.5 MFI
same,fluorescence intensity,[4]; [26],22 MFI
same,fluorescence intensity,[4]; [27],22 MFI
same,fluorescence intensity,[4]; [28],23 MFI
same,fluorescence intensity,[4]; [29],23 MFI
same,fluorescence intensity,[4]; [22],29 MFI
same,fluorescence intensity,[4]; [23],111 MFI
same,fluorescence intensity,[5]; [24],14 MFI
same,fluorescence intensity,[5]; [25],14 MFI
same,fluorescence intensity,[5]; [26],13.5 MFI
same,fluorescence intensity,[5]; [27],14.5 MFI
same,fluorescence intensity,[5]; [28],14 MFI
same,fluorescence intensity,[5]; [29],15.5 MFI
same,fluorescence intensity,[5]; [22],17.5 MFI
same,fluorescence intensity,[5]; [23],36.5 MFI
same,fluorescence intensity,[6]; [24],27.5 MFI
same,fluorescence intensity,[6]; [25],26.5 MFI
same,fluorescence intensity,[6]; [26],27.5 MFI
same,fluorescence intensity,[6]; [27],26.5 MFI
same,fluorescence intensity,[6]; [28],27.5 MFI
same,fluorescence intensity,[6]; [29],27.5 MFI
same,fluorescence intensity,[6]; [22],29 MFI
same,fluorescence intensity,[6]; [23],39 MFI
same,fluorescence intensity,[7]; [24],24.5 MFI
same,fluorescence intensity,[7]; [25],24.5 MFI
same,fluorescence intensity,[7]; [26],24.5 MFI
same,fluorescence intensity,[7]; [27],22.5 MFI
same,fluorescence intensity,[7]; [28],25 MFI
same,fluorescence intensity,[7]; [29],27 MFI
same,fluorescence intensity,[7]; [22],27.5 MFI
same,fluorescence intensity,[7]; [23],28.5 MFI
same,fluorescence intensity,[8]; [24],17.5 MFI
same,fluorescence intensity,[8]; [25],16.5 MFI
same,fluorescence intensity,[8]; [26],17 MFI
same,fluorescence intensity,[8]; [27],17 MFI
same,fluorescence intensity,[8]; [28],16.5 MFI
same,fluorescence intensity,[8]; [29],17.5 MFI
same,fluorescence intensity,[8]; [22],18 MFI
same,fluorescence intensity,[8]; [23],21.5 MFI
same,fluorescence intensity,[9]; [24],20.5 MFI
same,fluorescence intensity,[9]; [25],20.5 MFI
same,fluorescence intensity,[9]; [26],19.2 MFI
same,fluorescence intensity,[9]; [27],21 MFI
same,fluorescence intensity,[9]; [28],20.5 MFI
same,fluorescence intensity,[9]; [29],21.5 MFI
same,fluorescence intensity,[9]; [22],20 MFI
same,fluorescence intensity,[9]; [23],23.5 MFI
same,fluorescence intensity,[10]; [24],31.8 MFI
same,fluorescence intensity,[10]; [25],29.8 MFI
same,fluorescence intensity,[10]; [26],31.5 MFI
same,fluorescence intensity,[10]; [27],29 MFI
same,fluorescence intensity,[10]; [28],30.5 MFI
same,fluorescence intensity,[10]; [29],33 MFI
same,fluorescence intensity,[10]; [22],34.5 MFI
same,fluorescence intensity,[10]; [23],52.5 MFI
same,fluorescence intensity,[11]; [24],26.5 MFI
same,fluorescence intensity,[11]; [25],27.5 MFI
same,fluorescence intensity,[11]; [26],25.5 MFI
same,fluorescence intensity,[11]; [27],25.5 MFI
same,fluorescence intensity,[11]; [28],27.5 MFI
same,fluorescence intensity,[11]; [29],28.2 MFI
same,fluorescence intensity,[11]; [22],33.5 MFI
same,fluorescence intensity,[11]; [23],37.5 MFI
same,fluorescence intensity,[12]; [24],22 MFI
same,fluorescence intensity,[12]; [25],21.8 MFI
same,fluorescence intensity,[12]; [26],21 MFI
same,fluorescence intensity,[12]; [27],22.5 MFI
same,fluorescence intensity,[12]; [28],21.5 MFI
same,fluorescence intensity,[12]; [29],21.8 MFI
same,fluorescence intensity,[12]; [22],28.5 MFI
same,fluorescence intensity,[12]; [23],86.8 MFI
same,fluorescence intensity,[13]; [24],22.5 MFI
same,fluorescence intensity,[13]; [25],24 MFI
same,fluorescence intensity,[13]; [26],23.5 MFI
same,fluorescence intensity,[13]; [27],23 MFI
same,fluorescence intensity,[13]; [28],23 MFI
same,fluorescence intensity,[13]; [29],23 MFI
same,fluorescence intensity,[13]; [22],26.5 MFI
same,fluorescence intensity,[13]; [23],52.5 MFI
same,fluorescence intensity,[14]; [24],16 MFI
same,fluorescence intensity,[14]; [25],15 MFI
same,fluorescence intensity,[14]; [26],14 MFI
same,fluorescence intensity,[14]; [27],14.2 MFI
same,fluorescence intensity,[14]; [28],15 MFI
same,fluorescence intensity,[14]; [29],15.8 MFI
same,fluorescence intensity,[14]; [22],16.2 MFI
same,fluorescence intensity,[14]; [23],23 MFI
same,fluorescence intensity,[15]; [24],15.5 MFI
same,fluorescence intensity,[15]; [25],16.5 MFI
same,fluorescence intensity,[15]; [26],14.5 MFI
same,fluorescence intensity,[15]; [27],13.8 MFI
same,fluorescence intensity,[15]; [28],14.5 MFI
same,fluorescence intensity,[15]; [29],16 MFI
same,fluorescence intensity,[15]; [22],17.5 MFI
same,fluorescence intensity,[15]; [23],29.5 MFI
same,fluorescence intensity,[16]; [24],16 MFI
same,fluorescence intensity,[16]; [25],15.5 MFI
same,fluorescence intensity,[16]; [26],15.5 MFI
same,fluorescence intensity,[16]; [27],16 MFI
same,fluorescence intensity,[16]; [28],16.8 MFI
same,fluorescence intensity,[16]; [29],17 MFI
same,fluorescence intensity,[16]; [22],18 MFI
same,fluorescence intensity,[16]; [23],30 MFI
same,fluorescence intensity,[17]; [24],20 MFI
same,fluorescence intensity,[17]; [25],19 MFI
same,fluorescence intensity,[17]; [26],21 MFI
same,fluorescence intensity,[17]; [27],18.5 MFI
same,fluorescence intensity,[17]; [28],17.5 MFI
same,fluorescence intensity,[17]; [29],19.5 MFI
same,fluorescence intensity,[17]; [22],22 MFI
same,fluorescence intensity,[17]; [23],42 MFI
same,fluorescence intensity,[18]; [24],20.2 MFI
same,fluorescence intensity,[18]; [25],19 MFI
same,fluorescence intensity,[18]; [26],19 MFI
same,fluorescence intensity,[18]; [27],18.8 MFI
same,fluorescence intensity,[18]; [28],18.5 MFI
same,fluorescence intensity,[18]; [29],19 MFI
same,fluorescence intensity,[18]; [22],21 MFI
same,fluorescence intensity,[18]; [23],31 MFI
same,fluorescence intensity,[19]; [24],15 MFI
same,fluorescence intensity,[19]; [25],14 MFI
same,fluorescence intensity,[19]; [26],15.5 MFI
same,fluorescence intensity,[19]; [27],15.8 MFI
same,fluorescence intensity,[19]; [28],16 MFI
same,fluorescence intensity,[19]; [29],16.5 MFI
same,fluorescence intensity,[19]; [22],20 MFI
same,fluorescence intensity,[19]; [23],99.8 MFI
same,fluorescence intensity,[20]; [24],13.5 MFI
same,fluorescence intensity,[20]; [25],12.5 MFI
same,fluorescence intensity,[20]; [26],12.5 MFI
same,fluorescence intensity,[20]; [27],13.5 MFI
same,fluorescence intensity,[20]; [28],13 MFI
same,fluorescence intensity,[20]; [29],13.5 MFI
same,fluorescence intensity,[20]; [22],15 MFI
same,fluorescence intensity,[20]; [23],15.5 MFI
same,fluorescence intensity,[21]; [24],20.5 MFI
same,fluorescence intensity,[21]; [25],20 MFI
same,fluorescence intensity,[21]; [26],20.5 MFI
same,fluorescence intensity,[21]; [27],20 MFI
same,fluorescence intensity,[21]; [28],19.5 MFI
same,fluorescence intensity,[21]; [29],21.5 MFI

# Shown with bars between the fields: part of the list above
binder | measurement | setting | value
B2 | fluorescence intensity | [16]; [27] | 16 MFI
same | fluorescence intensity | [16]; [28] | 16.8 MFI
same | fluorescence intensity | [16]; [29] | 17 MFI
same | fluorescence intensity | [16]; [22] | 18 MFI
same | fluorescence intensity | [16]; [23] | 30 MFI
same | fluorescence intensity | [17]; [24] | 20 MFI
same | fluorescence intensity | [17]; [25] | 19 MFI

# Random excerpt: 2 records from the list
binder,measurement,setting,value
B2,fluorescence intensity,[5]; [24],14 MFI
same,fluorescence intensity,[9]; [23],23.5 MFI
